{"source": "PubChem BioAssay AID1224830 – NIAID | 2016", "screen": "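Host factors that control LPS-induced TNF expression in human macrophages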 (primary screen)", "system": "human THP-1 monocytic leukaemia cells, TNF dual-luciferase reporter clone, PMA-differentiated to macrophage-like cells", "reagents": "siRNA pool against human genes, 50 nM", "time to read-out": "LPS for 4 h, given about 3 days after siRNA transfection", "treatment": "bacterial LPS (TLR4 ligand), 10 ng/ml", "measurement": "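TNF firefly reporter luminescence divided by renilla, normalised to the plate median, then turned into a robust z-score for each replicate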", "direction": "TNF reporter robust z-score: higher = stronger TNF reporter response to LPS", "call rule": "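Each well counts as active if its z-score is over 2.8 or under -1.5; controls are left without a call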", "note": "Shown is a random part of about 18,000 reagents. About 2,900 of them (16%) count as active. 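Calls are made per well; low scores hint the gene aids the LPS response, high scores that it dampens it.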 A number with no mark means an inactive call. Repeated entries: four replicate wells of each siRNA pool."}
{"Gene": "KRTAP10-7", "TNF reporter robust z-score": -0.47}
{"Gene": "KRTAP10-7", "TNF reporter robust z-score": 0.54}
{"Gene": "KRTAP10-7", "TNF reporter robust z-score": 1.37}
{"Gene": "KRTAP10-7", "TNF reporter robust z-score": -1.15}
{"Gene": "LACRT", "TNF reporter robust z-score": -1.28}
{"Gene": "LACRT", "TNF reporter robust z-score": -0.32}
{"Gene": "LACRT", "TNF reporter robust z-score": -0.19}
{"Gene": "LACRT", "TNF reporter robust z-score": 0.03}
{"Gene": "KCNAB3", "TNF reporter robust z-score": 0.76}
{"Gene": "KCNAB3", "TNF reporter robust z-score": 0.59}
{"Gene": "KCNAB3", "TNF reporter robust z-score": 0.23}
{"Gene": "KCNAB3", "TNF reporter robust z-score": 1.21}
{"Gene": "DYRK1B", "TNF reporter robust z-score": -1.17}
{"Gene": "DYRK1B", "TNF reporter robust z-score": 0.61}
{"Gene": "DYRK1B", "TNF reporter robust z-score": -0.7}
{"Gene": "DYRK1B", "TNF reporter robust z-score": -0.2}
{"Gene": "FXYD5", "TNF reporter robust z-score": -0.37}
{"Gene": "FXYD5", "TNF reporter robust z-score": -0.41}
{"Gene": "FXYD5", "TNF reporter robust z-score": -0.97}
{"Gene": "FXYD5", "TNF reporter robust z-score": 1.12}
{"Gene": "PNLDC1", "TNF reporter robust z-score": 0.4}
{"Gene": "PNLDC1", "TNF reporter robust z-score": 0.89}
{"Gene": "PNLDC1", "TNF reporter robust z-score": 0.52}
{"Gene": "PNLDC1", "TNF reporter robust z-score": 0.84}
{"Gene": "CD320", "TNF reporter robust z-score": -1.33}
{"Gene": "CD320", "TNF reporter robust z-score": -0.14}
{"Gene": "CD320", "TNF reporter robust z-score": -0.65}
{"Gene": "CD320", "TNF reporter robust z-score": -0.15}
{"Gene": "FAM156A", "TNF reporter robust z-score": 0.86}
{"Gene": "FAM156A", "TNF reporter robust z-score": 1.18}
{"Gene": "FAM156A", "TNF reporter robust z-score": 0.36}
{"Gene": "FAM156A", "TNF reporter robust z-score": 1}
{"Gene": "NUDCD1", "TNF reporter robust z-score": -0.39}
{"Gene": "NUDCD1", "TNF reporter robust z-score": 1.35}
{"Gene": "NUDCD1", "TNF reporter robust z-score": -0.02}
{"Gene": "NUDCD1", "TNF reporter robust z-score": -0.27}
{"Gene": "KIAA2012", "TNF reporter robust z-score": 0.19}
{"Gene": "KIAA2012", "TNF reporter robust z-score": -0.71}
{"Gene": "KIAA2012", "TNF reporter robust z-score": 0.32}
{"Gene": "KIAA2012", "TNF reporter robust z-score": 0.45}
{"Gene": "SLC22A25", "TNF reporter robust z-score": -0.78}
{"Gene": "SLC22A25", "TNF reporter robust z-score": -0.52}
{"Gene": "SLC22A25", "TNF reporter robust z-score": -0.74}
{"Gene": "SLC22A25", "TNF reporter robust z-score": -0.8}
{"Gene": "FOXF2", "TNF reporter robust z-score": -1.28}
{"Gene": "FOXF2", "TNF reporter robust z-score": -0.35}
{"Gene": "FOXF2", "TNF reporter robust z-score": 0.26}
{"Gene": "FOXF2", "TNF reporter robust z-score": -0.55}
